The other results are listed elsewhere or left out.
How the values were obtained:
Assay in all cases: log2 fold change, soluble protein after heating vs DMSO (PISA); higher = thermal stabilisation; K562 cells, 10 uM, 30 min; active = over 0.2 and 3.5 SD of the protein, either way, in both replicates (recomputed)
bafetinib = compound: Cc1ccc(NC(=O)c2ccc(CN3CC[C@H](N(C)C)C3)c(C(F)(F)F)c2)cc1Nc1nccc(-c2cncnc2)n1 [bafetinib]
Summary of the method: (§1)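 Thermal stability values are relative to control samples and come from duplicates. They are expressed as log2 fold changes. For measurement, K562 cells (2×10^6 cells/mL) received 10 μM compound for 30 min, and aliquots were heated for 3 min over 48°C-58°C, pooled, and extracted at 4°C in PBS with 0.5% NP-40. Soluble protein, the supernatant after 21,000xg for 90 min, was quantified by TMTpro 16plex LC-MS/MS with equalised channel sums.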

Chains of the proteins cited; added tags and fusions are not shown. Lines headed by an entry give the natural chain unless they say otherwise; changes in a name come on top.
UniProt Q05048: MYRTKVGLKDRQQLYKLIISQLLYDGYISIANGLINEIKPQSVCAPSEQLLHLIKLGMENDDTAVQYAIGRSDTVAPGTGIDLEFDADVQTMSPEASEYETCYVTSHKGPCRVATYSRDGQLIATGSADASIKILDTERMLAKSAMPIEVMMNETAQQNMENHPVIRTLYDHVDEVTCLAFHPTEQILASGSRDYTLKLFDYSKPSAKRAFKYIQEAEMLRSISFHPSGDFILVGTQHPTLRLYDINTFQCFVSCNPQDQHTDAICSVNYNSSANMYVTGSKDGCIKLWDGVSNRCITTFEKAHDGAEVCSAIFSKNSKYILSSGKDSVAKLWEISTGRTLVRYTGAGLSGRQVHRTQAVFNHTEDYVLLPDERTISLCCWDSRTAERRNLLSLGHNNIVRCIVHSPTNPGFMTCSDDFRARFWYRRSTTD
UniProt Q8TB03: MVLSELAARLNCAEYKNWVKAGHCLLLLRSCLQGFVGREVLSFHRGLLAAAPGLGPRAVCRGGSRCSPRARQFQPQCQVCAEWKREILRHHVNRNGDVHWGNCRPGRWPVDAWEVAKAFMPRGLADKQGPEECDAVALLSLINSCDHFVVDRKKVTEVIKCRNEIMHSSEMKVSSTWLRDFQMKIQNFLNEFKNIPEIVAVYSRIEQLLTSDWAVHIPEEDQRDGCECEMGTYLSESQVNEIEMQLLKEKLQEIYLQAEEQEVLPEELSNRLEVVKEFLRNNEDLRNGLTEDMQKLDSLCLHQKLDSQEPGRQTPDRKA
UniProt P32929, whole entry, looked up: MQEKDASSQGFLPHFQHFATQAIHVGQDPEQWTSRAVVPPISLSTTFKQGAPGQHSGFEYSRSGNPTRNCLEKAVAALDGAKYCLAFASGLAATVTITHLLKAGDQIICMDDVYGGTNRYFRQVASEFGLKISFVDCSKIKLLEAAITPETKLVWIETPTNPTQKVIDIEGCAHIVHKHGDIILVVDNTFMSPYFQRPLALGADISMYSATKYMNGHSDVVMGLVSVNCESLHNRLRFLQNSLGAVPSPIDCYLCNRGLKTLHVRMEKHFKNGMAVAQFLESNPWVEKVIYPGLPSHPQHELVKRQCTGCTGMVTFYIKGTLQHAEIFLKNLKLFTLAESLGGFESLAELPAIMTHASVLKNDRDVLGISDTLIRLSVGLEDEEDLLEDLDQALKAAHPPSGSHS
UniProt Q9H0L4: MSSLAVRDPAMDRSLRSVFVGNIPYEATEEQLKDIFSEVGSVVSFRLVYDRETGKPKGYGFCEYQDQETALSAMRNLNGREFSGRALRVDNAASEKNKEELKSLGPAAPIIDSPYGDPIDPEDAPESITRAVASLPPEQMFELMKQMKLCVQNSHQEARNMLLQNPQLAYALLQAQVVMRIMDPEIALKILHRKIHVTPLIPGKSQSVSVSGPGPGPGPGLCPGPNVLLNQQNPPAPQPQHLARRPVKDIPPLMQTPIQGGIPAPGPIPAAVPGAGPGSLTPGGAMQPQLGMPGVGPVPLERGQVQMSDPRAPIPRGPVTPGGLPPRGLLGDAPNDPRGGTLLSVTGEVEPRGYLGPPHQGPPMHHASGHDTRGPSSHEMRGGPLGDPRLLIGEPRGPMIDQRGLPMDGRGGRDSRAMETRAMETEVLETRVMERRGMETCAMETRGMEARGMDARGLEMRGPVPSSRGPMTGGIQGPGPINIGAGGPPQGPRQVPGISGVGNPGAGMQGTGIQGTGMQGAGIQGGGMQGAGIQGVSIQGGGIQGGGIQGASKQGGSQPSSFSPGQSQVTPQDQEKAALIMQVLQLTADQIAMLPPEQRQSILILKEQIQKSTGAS
UniProt E9PJD7, whole entry, looked up: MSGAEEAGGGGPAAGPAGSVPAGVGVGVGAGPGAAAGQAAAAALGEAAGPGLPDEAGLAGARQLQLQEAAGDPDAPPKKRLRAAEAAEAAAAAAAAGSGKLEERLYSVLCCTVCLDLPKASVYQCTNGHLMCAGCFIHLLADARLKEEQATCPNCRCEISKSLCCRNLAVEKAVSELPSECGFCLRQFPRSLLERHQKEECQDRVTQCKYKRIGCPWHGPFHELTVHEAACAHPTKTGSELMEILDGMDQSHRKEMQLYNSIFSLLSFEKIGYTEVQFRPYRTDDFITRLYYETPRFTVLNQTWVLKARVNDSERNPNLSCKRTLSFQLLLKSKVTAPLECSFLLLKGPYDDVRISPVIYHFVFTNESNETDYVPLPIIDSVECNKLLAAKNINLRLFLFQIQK
UniProt P26232: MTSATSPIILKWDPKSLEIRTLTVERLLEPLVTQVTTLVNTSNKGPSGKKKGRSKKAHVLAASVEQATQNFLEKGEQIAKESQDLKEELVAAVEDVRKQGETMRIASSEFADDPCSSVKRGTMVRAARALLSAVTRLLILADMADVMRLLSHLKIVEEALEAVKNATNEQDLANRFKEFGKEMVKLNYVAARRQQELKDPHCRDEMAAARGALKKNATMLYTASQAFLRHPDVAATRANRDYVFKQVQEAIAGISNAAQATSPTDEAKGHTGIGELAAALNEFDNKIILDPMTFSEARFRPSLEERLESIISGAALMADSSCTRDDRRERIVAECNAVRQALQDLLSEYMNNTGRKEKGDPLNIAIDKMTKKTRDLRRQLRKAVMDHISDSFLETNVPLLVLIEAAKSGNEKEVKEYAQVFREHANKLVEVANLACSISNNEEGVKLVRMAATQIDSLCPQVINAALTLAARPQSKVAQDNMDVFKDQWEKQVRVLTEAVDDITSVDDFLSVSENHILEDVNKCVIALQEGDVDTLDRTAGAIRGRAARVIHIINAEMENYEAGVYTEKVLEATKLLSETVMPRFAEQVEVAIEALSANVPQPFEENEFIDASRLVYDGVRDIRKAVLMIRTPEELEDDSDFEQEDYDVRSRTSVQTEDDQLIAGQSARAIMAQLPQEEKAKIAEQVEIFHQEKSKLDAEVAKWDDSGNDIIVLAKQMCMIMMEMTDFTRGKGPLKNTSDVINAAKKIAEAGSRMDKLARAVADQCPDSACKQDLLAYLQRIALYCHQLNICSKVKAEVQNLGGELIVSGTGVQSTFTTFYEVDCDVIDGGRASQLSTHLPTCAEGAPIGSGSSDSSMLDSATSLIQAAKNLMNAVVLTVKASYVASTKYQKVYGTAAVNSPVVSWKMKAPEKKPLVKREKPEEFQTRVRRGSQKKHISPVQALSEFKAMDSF
UniProt P14868: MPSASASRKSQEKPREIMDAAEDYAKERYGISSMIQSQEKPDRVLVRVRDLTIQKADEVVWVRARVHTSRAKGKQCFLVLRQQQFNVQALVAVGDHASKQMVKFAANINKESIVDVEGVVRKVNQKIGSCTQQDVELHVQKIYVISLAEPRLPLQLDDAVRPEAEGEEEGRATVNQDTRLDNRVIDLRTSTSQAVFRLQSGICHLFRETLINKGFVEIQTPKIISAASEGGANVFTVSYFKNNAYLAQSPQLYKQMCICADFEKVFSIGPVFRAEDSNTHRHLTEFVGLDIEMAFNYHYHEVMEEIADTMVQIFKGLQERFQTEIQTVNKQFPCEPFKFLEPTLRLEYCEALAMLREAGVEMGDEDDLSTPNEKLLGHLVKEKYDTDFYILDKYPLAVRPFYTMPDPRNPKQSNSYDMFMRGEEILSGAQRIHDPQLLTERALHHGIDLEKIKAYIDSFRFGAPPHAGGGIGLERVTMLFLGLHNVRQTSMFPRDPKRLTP
UniProt P98082: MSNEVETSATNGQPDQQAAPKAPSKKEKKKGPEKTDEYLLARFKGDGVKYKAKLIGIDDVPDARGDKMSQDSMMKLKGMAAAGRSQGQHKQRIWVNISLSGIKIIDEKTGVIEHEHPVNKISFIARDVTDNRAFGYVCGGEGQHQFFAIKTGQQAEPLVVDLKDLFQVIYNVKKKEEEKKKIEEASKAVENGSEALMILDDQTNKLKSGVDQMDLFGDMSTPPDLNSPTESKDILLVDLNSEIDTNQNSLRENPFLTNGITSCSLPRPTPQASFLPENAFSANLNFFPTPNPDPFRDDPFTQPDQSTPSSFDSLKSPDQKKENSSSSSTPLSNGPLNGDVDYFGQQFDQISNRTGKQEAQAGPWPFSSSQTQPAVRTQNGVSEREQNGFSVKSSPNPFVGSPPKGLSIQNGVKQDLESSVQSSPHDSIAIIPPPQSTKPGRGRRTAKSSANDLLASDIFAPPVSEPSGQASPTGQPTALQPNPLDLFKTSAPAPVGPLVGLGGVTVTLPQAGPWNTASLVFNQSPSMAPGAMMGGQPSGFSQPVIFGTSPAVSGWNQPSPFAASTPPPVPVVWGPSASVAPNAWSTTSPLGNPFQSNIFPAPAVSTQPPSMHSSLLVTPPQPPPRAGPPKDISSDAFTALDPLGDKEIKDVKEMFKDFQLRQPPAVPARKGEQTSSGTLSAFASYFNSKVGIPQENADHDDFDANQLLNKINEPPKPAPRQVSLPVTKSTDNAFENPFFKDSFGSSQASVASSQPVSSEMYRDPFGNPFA
UniProt Q9NTM9: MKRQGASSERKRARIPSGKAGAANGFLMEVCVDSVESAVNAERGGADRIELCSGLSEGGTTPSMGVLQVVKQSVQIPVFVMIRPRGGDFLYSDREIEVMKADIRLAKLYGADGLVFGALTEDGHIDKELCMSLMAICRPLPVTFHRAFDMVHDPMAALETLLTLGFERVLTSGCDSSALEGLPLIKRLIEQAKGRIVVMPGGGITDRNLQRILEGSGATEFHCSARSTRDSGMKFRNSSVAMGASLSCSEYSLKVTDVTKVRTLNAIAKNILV
UniProt O43310: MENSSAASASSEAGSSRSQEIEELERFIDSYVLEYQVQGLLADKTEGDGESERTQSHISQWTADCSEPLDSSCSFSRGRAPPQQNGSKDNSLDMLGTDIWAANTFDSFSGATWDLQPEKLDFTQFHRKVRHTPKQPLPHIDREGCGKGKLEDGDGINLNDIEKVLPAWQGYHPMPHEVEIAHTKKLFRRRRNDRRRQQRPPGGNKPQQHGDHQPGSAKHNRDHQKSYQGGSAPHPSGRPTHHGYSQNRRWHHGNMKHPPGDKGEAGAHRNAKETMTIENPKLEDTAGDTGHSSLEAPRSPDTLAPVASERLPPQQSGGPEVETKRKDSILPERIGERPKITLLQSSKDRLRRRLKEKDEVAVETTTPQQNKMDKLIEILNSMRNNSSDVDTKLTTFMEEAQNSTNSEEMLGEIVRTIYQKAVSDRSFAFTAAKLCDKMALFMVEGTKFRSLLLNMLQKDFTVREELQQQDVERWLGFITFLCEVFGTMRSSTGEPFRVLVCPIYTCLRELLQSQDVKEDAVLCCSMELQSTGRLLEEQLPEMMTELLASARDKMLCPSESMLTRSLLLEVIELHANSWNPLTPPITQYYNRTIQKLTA
UniProt P08574: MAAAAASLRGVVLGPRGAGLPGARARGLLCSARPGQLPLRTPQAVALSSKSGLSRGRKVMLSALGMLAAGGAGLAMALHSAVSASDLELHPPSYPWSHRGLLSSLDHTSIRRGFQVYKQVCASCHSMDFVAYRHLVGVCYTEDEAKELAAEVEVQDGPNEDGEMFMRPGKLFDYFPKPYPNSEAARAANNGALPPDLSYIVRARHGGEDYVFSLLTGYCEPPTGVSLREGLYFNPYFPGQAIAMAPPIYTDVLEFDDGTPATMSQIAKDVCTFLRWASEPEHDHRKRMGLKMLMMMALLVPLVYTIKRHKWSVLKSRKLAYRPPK
UniProt Q8N465: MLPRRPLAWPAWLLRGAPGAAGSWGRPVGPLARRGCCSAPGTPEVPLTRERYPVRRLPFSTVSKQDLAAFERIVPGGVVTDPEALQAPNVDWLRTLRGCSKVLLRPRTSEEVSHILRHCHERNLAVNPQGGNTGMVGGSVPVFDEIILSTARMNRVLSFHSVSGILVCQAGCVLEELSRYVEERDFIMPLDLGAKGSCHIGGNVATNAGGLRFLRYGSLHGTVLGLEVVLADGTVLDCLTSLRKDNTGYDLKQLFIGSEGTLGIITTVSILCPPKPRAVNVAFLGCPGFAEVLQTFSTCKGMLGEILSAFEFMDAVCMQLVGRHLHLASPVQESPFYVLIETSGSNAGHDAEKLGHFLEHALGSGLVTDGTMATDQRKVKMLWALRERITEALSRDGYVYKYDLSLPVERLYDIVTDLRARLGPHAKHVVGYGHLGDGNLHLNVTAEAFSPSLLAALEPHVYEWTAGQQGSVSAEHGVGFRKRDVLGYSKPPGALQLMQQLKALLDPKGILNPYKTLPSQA

[1] = compound: Cc1cccc(CC(=O)N2CCc3c2ccc(-c2cn(C)c4ncnc(N)c24)c3F)n1
Summary of the method: as §1

nilotinib = compound: Cc1cn(-c2cc(NC(=O)c3ccc(C)c(Nc4nccc(-c5cccnc5)n4)c3)cc(C(F)(F)F)c2)cn1 [nilotinib]
Summary of the method: as §1

[2] = compound: Cc1nc(Nc2n[nH]c3c2CN(C(=O)N[C@H](CN(C)C)c2ccccc2)C3(C)C)c2sccc2n1
Summary of the method: as §1

dasatinib = compound: Cc1nc(Nc2ncc(C(=O)Nc3c(C)cccc3Cl)s2)cc(N2CCN(CCO)CC2)n1 [dasatinib]
Summary of the method: as §1

[3] = compound: Cc1ncc(-c2ccnc(Nc3ccc(S(C)(=O)=O)cc3)n2)n1C(C)C
Summary of the method: as §1

[4] = compound: Cn1cc(-c2ccc3c(c2)CCN3C(=O)Cc2cccc(C(F)(F)F)c2)c2c(N)ncnc21
Summary of the method: as §1

[5] = compound: Cn1cc(-c2ccc3nnc(C(F)(F)c4ccc5ncccc5c4)n3n2)cn1
Summary of the method: as §1

tipifarnib = compound: Cn1cncc1[C@@](N)(c1ccc(Cl)cc1)c1ccc2c(c1)c(-c1cccc(Cl)c1)cc(=O)n2C [tipifarnib]
Summary of the method: as §1

mubritinib = compound: FC(F)(F)c1ccc(/C=C/c2nc(COc3ccc(CCCCn4ccnn4)cc3)co2)cc1 [mubritinib]
Summary of the method: as §1

[6] = compound: NC(=O)Nc1cc(-c2cccc(F)c2)sc1C(=O)N[C@H]1CCCNC1
Summary of the method: as §1

[7] = compound: NC(=O)c1cnc(N[C@@H]2CCCC[C@@H]2N)nc1Nc1cccc(-n2nccn2)c1
Summary of the method: as §1

[8] = compound: NC1(c2ccc(-c3nc4ccn5c(=O)[nH]nc5c4cc3-c3ccccc3)cc2)CCC1
Summary of the method: as §1

[9] = compound: NCC(=O)Nc1ccc(-n2nc(C(F)(F)F)cc2-c2ccc3c(ccc4ccccc43)c2)cc1
Summary of the method: as §1

entinostat = compound: Nc1ccccc1NC(=O)c1ccc(CNC(=O)OCc2cccnc2)cc1 [entinostat]
Summary of the method: as §1

vorinostat = compound: O=C(CCCCCCC(=O)Nc1ccccc1)NO [vorinostat]
Summary of the method: as §1

citarinostat = compound: O=C(CCCCCCNC(=O)c1cnc(N(c2ccccc2)c2ccccc2Cl)nc1)NO [citarinostat]
Summary of the method: as §1

silmitasertib = compound: O=C(O)c1ccc2c(c1)nc(Nc1cccc(Cl)c1)c1ccncc12 [silmitasertib]
Summary of the method: as §1

[10] = compound: O=C1NC(=O)C(c2cnc3ccccn23)=C1c1cn2c3c(cc(F)cc13)CN(C(=O)N1CCCCC1)CC2
Summary of the method: as §1

[11] = compound: c1cc(OCCN2CCCCC2)cc(-c2n[nH]c3ccc(-c4nnc[nH]4)cc23)c1
Summary of the method: as §1

Measured: log2 fold change

CSTF1 (UniProt Q05048)
inactive: bafetinib -0.03 | [1] -0.029 | nilotinib -0.031 | [2] 0.071 | dasatinib -0.002 | [3] 0.055 | [4] 0.066 | [5] 0 | tipifarnib -0.032 | mubritinib 0 | [6] 0.014 | [7] -0.011 | [8] -0.009 | [9] 0.013 | entinostat -0.023 | vorinostat -0.048 | citarinostat 0.021 | silmitasertib 0.072 | [10] 0.038 | [11] 0.017

CXorf38 (UniProt Q8TB03)
inactive: bafetinib -0.044 | [1] -0.014 | nilotinib -0.041 | [2] -0.041 | dasatinib 0.011 | [3] -0.075 | [4] 0.075 | [5] 0.053 | tipifarnib 0.063 | mubritinib 0.043 | [6] -0.066 | [7] -0.024 | [8] -0.078 | [9] -0.011 | entinostat -0.034 | vorinostat 0.046 | citarinostat 0.095 | silmitasertib -0.01 | [10] -0.007 | [11] -0.021

CTH (UniProt P32929)
inactive: bafetinib 0.028 | [1] 0.011 | nilotinib -0.022 | [2] -0.006 | dasatinib 0.021 | [3] -0.036 | [4] 0.025 | [5] -0.062 | tipifarnib -0.037 | mubritinib -0.012 | [6] 0.074 | [7] 0.025 | [8] -0.005 | [9] 0.058 | entinostat 0.025 | vorinostat -0.061 | citarinostat 0.1 | silmitasertib 0 | [10] -0.028 | [11] 0.012

CSTF2T (UniProt Q9H0L4)
inactive: bafetinib -0.019 | [1] -0.025 | nilotinib -0.016 | [2] 0.086 | dasatinib 0.011 | [3] 0.062 | [4] -0.018 | [5] 0.011 | tipifarnib -0.018 | mubritinib 0.03 | [6] 0.005 | [7] -0.029 | [8] -0.004 | [9] -0.015 | entinostat -0.014 | vorinostat 0.016 | citarinostat 0.025 | silmitasertib 0.014 | [10] 0.052 | [11] 0.05

CYHR1 (UniProt E9PJD7)
inactive: bafetinib -0.033 | [1] 0.015 | nilotinib 0.043 | [2] -0.038 | dasatinib 0.065 | [3] -0.034 | [4] 0.002 | [5] 0.063 | tipifarnib 0.066 | mubritinib 0.115 | [6] -0.029 | [7] -0.028 | [8] 0.072 | [9] 0.124 | entinostat 0.006 | vorinostat -0.001 | citarinostat 0.022 | silmitasertib 0 | [10] 0.037 | [11] -0.061

CTNNA2 (UniProt P26232)
inactive: bafetinib -0.099 | [1] 0.05 | nilotinib 0.017 | [2] -0.039 | dasatinib -0.033 | [3] -0.029 | [4] 0.055 | [5] -0.001 | tipifarnib 0.023 | mubritinib 0.048 | [6] -0.013 | [7] -0.013 | [8] -0.112 | [9] -0.008 | entinostat -0.019 | vorinostat 0.047 | citarinostat 0.064 | silmitasertib -0.032 | [10] -0.021 | [11] -0.018

CXorf56 (UniProt Q9H5V9)
inactive: bafetinib 0.046 | [1] 0.011 | nilotinib -0.018 | [2] -0.073 | dasatinib -0.048 | [3] 0.039 | [4] -0.039 | [5] -0.102 | tipifarnib 0.052 | mubritinib 0.055 | [6] -0.078 | [7] 0.006 | [8] -0.028 | [9] -0.12 | entinostat -0.013 | vorinostat -0.006 | citarinostat 0.006 | silmitasertib 0.004 | [10] -0.013 | [11] -0.062

CSTF2 (UniProt P33240)
inactive: bafetinib -0.05 | [1] -0.061 | nilotinib -0.029 | [2] 0.074 | dasatinib 0.007 | [3] 0.047 | [4] -0.011 | [5] -0.014 | tipifarnib 0.028 | mubritinib -0.046 | [6] 0.015 | [7] -0.054 | [8] 0.086 | [9] -0.031 | entinostat -0.028 | vorinostat -0.08 | citarinostat -0.011 | silmitasertib 0.07 | [10] -0.049 | [11] -0.042

4 neighbouring entries out of the list so far, quoted:
CTH (UniProt P32929)
inactive: bafetinib 0.028 | [1] 0.011 | nilotinib -0.022 | [2] -0.006 | dasatinib 0.021 | [3] -0.036 | [4] 0.025 | [5] -0.062 | tipifarnib -0.037 | mubritinib -0.012 | [6] 0.074 | [7] 0.025 | [8] -0.005 | [9] 0.058 | entinostat 0.025 | vorinostat -0.061 | citarinostat 0.1 | silmitasertib 0 | [10] -0.028 | [11] 0.012

CSTF2T (UniProt Q9H0L4)
inactive: bafetinib -0.019 | [1] -0.025 | nilotinib -0.016 | [2] 0.086 | dasatinib 0.011 | [3] 0.062 | [4] -0.018 | [5] 0.011 | tipifarnib -0.018 | mubritinib 0.03 | [6] 0.005 | [7] -0.029 | [8] -0.004 | [9] -0.015 | entinostat -0.014 | vorinostat 0.016 | citarinostat 0.025 | silmitasertib 0.014 | [10] 0.052 | [11] 0.05

CYHR1 (UniProt E9PJD7)
inactive: bafetinib -0.033 | [1] 0.015 | nilotinib 0.043 | [2] -0.038 | dasatinib 0.065 | [3] -0.034 | [4] 0.002 | [5] 0.063 | tipifarnib 0.066 | mubritinib 0.115 | [6] -0.029 | [7] -0.028 | [8] 0.072 | [9] 0.124 | entinostat 0.006 | vorinostat -0.001 | citarinostat 0.022 | silmitasertib 0 | [10] 0.037 | [11] -0.061

CTNNA2 (UniProt P26232)
inactive: bafetinib -0.099 | [1] 0.05 | nilotinib 0.017 | [2] -0.039 | dasatinib -0.033 | [3] -0.029 | [4] 0.055 | [5] -0.001 | tipifarnib 0.023 | mubritinib 0.048 | [6] -0.013 | [7] -0.013 | [8] -0.112 | [9] -0.008 | entinostat -0.019 | vorinostat 0.047 | citarinostat 0.064 | silmitasertib -0.032 | [10] -0.021 | [11] -0.018

(further entries)

CUL4B (UniProt K4DI93)
inactive: bafetinib -0.053 | [1] 0.01 | nilotinib -0.001 | [2] 0.012 | dasatinib -0.008 | [3] 0.001 | [4] 0.048 | [5] -0.005 | tipifarnib -0.012 | mubritinib 0.011 | [6] -0.019 | [7] -0.025 | [8] -0.062 | [9] -0.015 | entinostat -0.006 | vorinostat 0.008 | citarinostat 0.032 | silmitasertib -0.031 | [10] -0.033 | [11] -0.005

DARS (UniProt P14868)
inactive: bafetinib -0.023 | [1] 0 | nilotinib -0.015 | [2] 0.038 | dasatinib 0.055 | [3] 0.002 | [4] -0.035 | [5] -0.032 | tipifarnib 0.015 | mubritinib 0.006 | [6] -0.008 | [7] -0.001 | [8] 0.028 | [9] 0.033 | entinostat -0.04 | vorinostat -0.007 | citarinostat -0.013 | silmitasertib 0.033 | [10] 0.069 | [11] -0.089

DAB2 (UniProt P98082)
inactive: bafetinib -0.041 | [1] 0.085 | nilotinib -0.152 | [2] 0.002 | dasatinib -0.178 | [3] -0.098 | [4] 0.01 | [5] -0.007 | tipifarnib -0.042 | mubritinib -0.024 | [6] -0.006 | [7] -0.033 | [8] -0.124 | [9] 0.016 | entinostat -0.026 | vorinostat -0.066 | citarinostat 0.037 | silmitasertib 0.102 | [10] 0.001 | [11] -0.041

CUTC (UniProt Q9NTM9)
inactive: bafetinib -0.015 | [1] -0.011 | nilotinib 0.035 | [2] 0.053 | dasatinib -0.022 | [3] 0 | [4] 0.031 | [5] 0.066 | tipifarnib -0.012 | mubritinib 0.051 | [6] 0.047 | [7] -0.084 | [8] -0.031 | [9] 0.031 | entinostat 0.009 | vorinostat -0.002 | citarinostat 0.03 | silmitasertib -0.042 | [10] -0.109 | [11] -0.064

CTIF isoform 2 (UniProt O43310)
inactive: bafetinib -0.267 | [1] 0.001 | nilotinib -0.044 | [2] 0.015 | dasatinib 0.055 | [3] 0.204 | [4] 0.015 | [5] 0.007 | tipifarnib -0.022 | mubritinib 0.002 | [6] 0.016 | [7] 0.029 | [8] -0.092 | [9] -0.037 | entinostat -0.025 | vorinostat -0.066 | citarinostat 0.155 | silmitasertib 0.099 | [10] -0.064 | [11] -0.119

CYC1 (UniProt P08574)
inactive: bafetinib -0.031 | [1] -0.019 | nilotinib -0.01 | [2] 0.094 | dasatinib 0.02 | [3] -0.027 | [4] 0.024 | [5] -0.003 | tipifarnib -0.075 | mubritinib -0.024 | [6] 0.032 | [7] -0.03 | [8] 0.012 | [9] -0.006 | entinostat -0.005 | vorinostat -0.032 | citarinostat 0.021 | silmitasertib -0.01 | [10] -0.003 | [11] -0.081

D2HGDH (UniProt Q8N465)
inactive: bafetinib -0.033 | [1] -0.037 | nilotinib 0.001 | [2] 0.098 | dasatinib 0.006 | [3] -0.121 | [4] 0.042 | [5] -0.001 | tipifarnib -0.058 | mubritinib 0.134 | [6] -0.015 | [7] -0.004 | [8] -0.008 | [9] -0.014 | entinostat -0.121 | vorinostat 0.301 | citarinostat 0.007 | silmitasertib 0.012 | [10] 0.006 | [11] -0.16

DCAF8 (UniProt Q5TAQ9)
inactive: bafetinib -0.072 | [1] -0.023 | nilotinib -0.045 | [2] 0.051 | dasatinib -0.023 | [3] -0.076 | [4] 0.057 | [5] -0.03 | tipifarnib -0.052 | mubritinib 0.002 | [6] -0.092 | [7] -0.078 | [8] -0.013 | [9] -0.048 | entinostat 0.034 | vorinostat -0.054 | citarinostat 0.018 | silmitasertib 0.023 | [10] -0.069 | [11] -0.029
